{
  "source": "patent US12396984B2",
  "about": "“Managing microbial dysbiosis with temocillin” (Entasis Therapeutics, Inc., priority 2019, dated 2025)",
  "tested_on": "AIEC strain (Phylotype D)",
  "assay": "GI AIEC decolonization murine model",
  "type": "in vivo, C57BL/6J mice",
  "settings": "30 mg/kg by oral gavage, post-treatment, FIG. 1",
  "method": "A GI AIEC decolonization murine model studies were performed using a previously published murine model as the basis and run in accordance with animal ethical guidelines at an external contract research organization. Healthy C57BL/6J mice were first administered streptomycin by oral gavage. An AIEC strain (Phylotype D) was then administered at approximately 1-5×10^6 cfu per mouse by oral gavage and fecal pellets were enumerated for AIEC burden. Upon stable colonization (usually after 48 h post-AIEC administration), mice were sorted into three groups of 4 animals each. […] The third group was the control and was given an equivalent volume of sterile saline by oral gavage. Fecal pellets were recovered at various times as indicated on the X-axis of FIG. 1 and AIEC burden quantified by dilution and plating. Two successive fecal pellets were recovered from each mouse per group to sufficiently power the data.",
  "data": [
    {"smiles": "O=C(O)c1cn(C2CC2)c2cc(N3CCNCC3)c(F)cc2c1=O", "note": "[Ciprofloxacin]", "values": [
      {"measurement": "AIEC burden after cessation of treatment (rebound)", "result": "showed a rebound effect"},
      {"measurement": "AIEC burden after cessation of treatment (rebound)", "setting": "listed as ciprofloxacin", "result": "began to show a re-bound effect following day 7 after treatment cessation"}
    ]}
  ]
}
